# Assay results published in paper PMC7910558.
# Chains of the proteins cited; added tags and fusions are not shown. Lines headed by an entry give the natural chain unless they say otherwise; changes in a name come on top.
# UniProt P14618: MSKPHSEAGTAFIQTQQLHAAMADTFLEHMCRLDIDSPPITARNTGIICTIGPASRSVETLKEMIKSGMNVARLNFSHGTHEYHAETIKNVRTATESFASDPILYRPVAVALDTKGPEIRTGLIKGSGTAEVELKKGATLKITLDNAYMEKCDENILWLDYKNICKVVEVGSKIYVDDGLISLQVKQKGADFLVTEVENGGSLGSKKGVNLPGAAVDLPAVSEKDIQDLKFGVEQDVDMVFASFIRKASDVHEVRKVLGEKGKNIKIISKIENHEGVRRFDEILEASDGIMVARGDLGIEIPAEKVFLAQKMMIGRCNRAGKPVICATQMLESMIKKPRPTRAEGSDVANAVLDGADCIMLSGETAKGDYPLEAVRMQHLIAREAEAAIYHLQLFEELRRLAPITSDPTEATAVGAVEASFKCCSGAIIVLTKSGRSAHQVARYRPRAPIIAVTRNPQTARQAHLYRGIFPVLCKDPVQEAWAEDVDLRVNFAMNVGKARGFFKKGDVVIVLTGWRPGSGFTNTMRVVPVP
# UniProt Q9H6Z9: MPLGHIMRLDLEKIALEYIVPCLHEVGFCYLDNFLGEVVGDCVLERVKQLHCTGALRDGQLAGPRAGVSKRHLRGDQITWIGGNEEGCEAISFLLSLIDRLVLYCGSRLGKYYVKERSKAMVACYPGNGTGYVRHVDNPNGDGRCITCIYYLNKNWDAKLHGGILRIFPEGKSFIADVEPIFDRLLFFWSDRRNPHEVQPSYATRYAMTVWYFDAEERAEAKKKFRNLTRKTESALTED
# For at least one entry, the source does not settle the construct or the ends of the probe. For some of these results: Where cells or extracts were used, other partners may take part. For some of these results: No signal at the amounts used counts as a negative. For some of these results: At least one verdict rests on a figure or table, not on a statement of the authors.
# Columns and labels:
# PKM2 = PKM2 (UniProt P14618); assay: pull-down; details: Pull-down: RNA folded in 10 mM Tris pH 7, 0.1 M KCl, 10 mM MgCl2, then 5 µg RNA with 5 mg lysate in Pierce IP lysis buffer, 1 h, room temperature, protein in an extract, label: biotin-16-UTP
# PKM2 (EMSA) = PKM2 (EMSA) (UniProt P14618); assay: EMSA; details: EMSA: LightShift chemiluminescent RNA EMSA kit, buffer not given; recombinant protein; label: biotin-16-UTP
# PHD3 = PHD3 (UniProt Q9H6Z9); assay: pull-down; details: Pull-down: RNA folded in 10 mM Tris pH 7, 0.1 M KCl, 10 mM MgCl2, then 5 µg RNA with 5 mg lysate in Pierce IP lysis buffer, 1 h, room temperature, protein in an extract, label: biotin-16-UTP
# [1] = as efficient as full length, letters put together from the description
# [2] = letters put together from the description
sequence,measurement,setting,value
UCAUGUAGCGCCAGCCACACCAGGAACAGAAGGGUGCCGGGUACCUUCCGCAUGCUUGGU [HIFAL nt 1-60],binding result,PKM2; [1],binds
UCAUGUAGCGCCAGCCACACCAGGAACAGUACCUGGU [HIFAL 1-60 ΔhB (mB)],binding result,PKM2 (EMSA),binds
same,binding result,PKM2,binds
UCAGCCACCAGGAACAGAAGGGUGCCGGGUACUUCCGCAUGCUUGGU [HIFAL 1-60 ΔhA (mA)],binding result,PKM2 (EMSA),binds
same,binding result,PKM2,binds
UGCAUGGUGCUUACUAAUAACACAGUGGUAUUCUAAACAUUUUUCACCUAUUAUUUAAUCUUUAUUAUUAUCACCAUGUUACAGAUAAGGACCCUGGCUAAAUAGCUUACCCAACAUUACUCCGUUAAUAAAUGGUAGAACCUGUAUUUCACUCAAAAA [HIFAL nt 501-659],binding result,PHD3; [2],binds
UGCAUGUCUAAACAUUUUUCACCUAUUAUUUAAUC [HIFAL 501-560 ΔhC (mC)],binding result,PHD3,no binding
UGCAUGGUGCUUACUAAUAACACAGUGGUAUUCUAAACAUUUUUCACCUAUUAUUUAAUC [HIFAL nt 501-560],binding result,PHD3; [1],binds
UCAUGUAGCGCCAGCCACACCAGGAACAGAAGGGUGCCGGGUACCUUCCGCAUGCUUGGUAUUCUCCCCGCGGGGCUCUGACCGCUGCCGCUCUCAGGCACCUGUCUUUCCUCUCCGUCCCAGAAUGGAGCCAAGACAAGGGAAUAAACGAAAUUCAAUAGUACACGGAGAUCGGGUGUCUGGGCAGCGUCUUGGAAAAA [HIFAL nt 1-200],binding result,PKM2; [2],binds
UCAGCCACCAGGAACAGUACCUGGU [HIFAL 1-60 ΔhA+ΔhB],binding result,PKM2; [2],no binding
